Reference: the supplement of paper PMC7411640
Counter-ions that a name gives are not always drawn. This is one part of the list. Most values lie within the scatter of the assay; repeated measurements hardly agree.

Test system: MDA-MB-468
Assay: phospho-S6 immunofluorescence (DAPI-normalised), per-plate z-score; higher = higher phospho-S6 signal (less pathway suppression)
Settings: compound 0.1 µM; co-treatment: GDC0941 450 nM; 24 h
Experimental: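 GPCR-targeted compound library (MedChemExpress HY-L006) tested on MDA-MB-468 PTEN-null TNBC cells in 384-well plates at 0.1, 1 or 10 uM, combined with vehicle, GDC0941 450 nM or lapatinib 1 uM, for 24 h. Phospho-S6 (S240/244) immunofluorescence normalised to DAPI and expressed as a per-plate z-score; values are the mean of biological triplicates.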

SMILES	phospho-S6 immunofluorescence (z-score)
CCOC(=O)N[C@@H]1CC[C@@H]2[C@@H](C1)C[C@H]1C(=O)O[C@H](C)[C@H]1[C@H]2/C=C/c1ccc(-c2cccc(F)c2)cn1 [Vorapaxar]	-4
CC(C)c1noc(N2CCC(COc3ccc(-c4ccc(S(C)(=O)=O)cc4)nc3)CC2)n1	0.16
CC(C)NCC(O)COc1ccc(CCOCC2CC2)cc1 (stereo not given) [Betaxolol (hydrochloride)]	-0.2
CC(C)NC[C@H](O)COc1ccc(CCOCC2CC2)cc1 [Levobetaxolol (hydrochloride)]	-0.37
OC(CCN1CCCCC1)(c1ccccc1)C1CCCCC1 (stereo not given) [Trihexyphenidyl (hydrochloride)]	2.07
Clc1cccc(COc2cncc(N3CCNCC3)n2)c1	-0.03
Cc1c(C(=O)NN2CCCCC2)nn(-c2ccc(Cl)cc2Cl)c1-c1ccc(Cl)cc1 [Rimonabant (Hydrochloride)]	-0.27
CCOc1ccccc1OCCN[C@H](C)Cc1ccc(OC)c(S(N)(=O)=O)c1 [Tamsulosin]	-0.07
CN(C)CCOC(C)(c1ccccc1)c1ccccn1 (stereo not given) [Doxylamine (succinate)]	0.4
COCCCN1CCC(NC(=O)c2cc(Cl)c(N)c3c2OCC3)CC1 [Prucalopride]	-0.03
Nc1nc(CC(=O)Nc2ccc(CCNC[C@H](O)c3ccccc3)cc2)cs1 [Mirabegron]	0.31
CCNC(=O)[C@@H]1CCCN1C(=O)[C@H](CCCNC(=N)N)NC(=O)[C@H](CC(C)C)NC(=O)[C@@H](COC(C)(C)C)NC(=O)[C@H](Cc1ccc(O)cc1)NC(=O)[C@H](CO)NC(=O)[C@H](Cc1c[nH]c2ccccc12)NC(=O)[C@H](Cc1cnc[nH]1)NC(=O)[C@@H]1CCC(=O)N1 [Buserelin (Acetate)]	-0.16
CC(=O)Nc1cccc2c1c(Sc1ccc(Cl)cc1)c(C)n2CC(=O)O	0.21
COc1nc(C)nc(Cl)c1NC1=NCCN1 [Moxonidine]	-0.5
CC(COc1ccccc1)N(CCCl)Cc1ccccc1 (stereo not given) [Phenoxybenzamine (hydrochloride)]	-0.05
CC(C)COc1ccc(CNC(=O)N(Cc2ccc(F)cc2)C2CCN(C)CC2)cc1 [Pimavanserin]	0.37
c1ccc2c(c1)OCC(CN1CCCCC1)O2 (stereo not given) [Piperoxan (hydrochloride)]	1.08
O=C(O[C@@H]1C[C@@H]2C[C@H]3C[C@H](C1)N2CC3=O)c1c[nH]c2ccccc12 [Dolasetron (Mesylate hydrate)]	1.12
O=C1NCC2(CCN(CCc3ccccc3)CC2)O1 [Fenspiride (Hydrochloride)]	1.85
CN(C)CCc1c[nH]c2ccc(C[C@H]3COC(=O)N3)cc12 [Zolmitriptan]	-1.21

SMILES	phospho-S6 immunofluorescence (z-score)
Clc1ccc2c(c1)CCc1cccnc1C2=C1CCNCC1 [Desloratadine]	-1.09
COc1cc2c(cc1OC)CN(C(=O)[C@@H](NCc1ccncc1)C(C)(C)C)CC2	-0.48
CN1CCCC(n2nc(Cc3ccc(Cl)cc3)c3ccccc3c2=O)CC1 (stereo not given) [Azelastine (hydrochloride)]	0.61
CNC(=C[N+](=O)[O-])NCCSCc1csc(CN(C)C)n1 [Nizatidine]	1.32
CN(C)CCN1C(=O)c2cccc3cc(NC(N)=O)cc(c23)C1=O	1.25
CN1CCN(C2=Nc3ccccc3Oc3ccc(Cl)cc32)CC1 [Loxapine (succinate)]	-2.05
CCOc1nc2cccc(C(=O)OC(C)OC(=O)OC3CCCCC3)c2n1Cc1ccc(-c2ccccc2-c2nn[nH]n2)cc1 (stereo not given) [Candesartan (Cilexetil)]	-1.96
Cc1nc2n(c(=O)c1CCN1CCC(c3noc4cc(F)ccc34)CC1)CCCC2O (stereo not given) [Paliperidone]	1.94
CCNC(=O)[C@H]1O[C@@H](n2cnc3c(N)nc(NCCc4ccc(CCC(=O)O)cc4)nc32)[C@H](O)[C@@H]1O	0.32
CC(C)(Cc1ccc2ccccc2c1)NC[C@@H](O)COc1cccc(Cl)c1C#N	-0.5
CC(C)(Cc1ccc2ccccc2c1)NC[C@@H](O)COc1cccc(Cl)c1C#N [NPS-2143 (hydrochloride)]	-1.13
CC(C)N(CCCCOCC(=O)NS(C)(=O)=O)c1cnc(-c2ccccc2)c(-c2ccccc2)n1	1.03
O=C(O[C@@H]1C[C@@H]2C[C@H]3C[C@H](C1)N2CC3=O)c1c[nH]c2ccccc12 [Dolasetron]	1.38
CC(C)(C)NCC(O)c1cc(O)cc(O)c1 (stereo not given) [Terbutaline (sulfate)]	0.81
COc1cc(NC(=O)c2ccccn2)ccc1Cl	-0.61
C[C@@H](NCCCc1cccc(C(F)(F)F)c1)c1cccc2ccccc12 [Cinacalcet (hydrochloride)]	-1.53
Cc1cc2c(cc1Cl)N(C(=O)Nc1ccc(Oc3cccnc3C)nc1)CC2	-0.28
NC(=O)CC[C@H](N)C(=O)O [L-Glutamine]	0.29
O=C(c1ccc(F)cc1)N1CCC[C@H](c2nc(-c3ccc(F)cc3)no2)C1	-0.13
O=C1O[C@]2(CC[C@H](C(=O)Nc3ccn(-c4ccccc4F)n3)CC2)c2cnccc21	-0.22

An excerpt of these results, bar-delimited:
SMILES | phospho-S6 immunofluorescence (z-score)
CNC(=C[N+](=O)[O-])NCCSCc1csc(CN(C)C)n1 [Nizatidine] | 1.32
CN(C)CCN1C(=O)c2cccc3cc(NC(N)=O)cc(c23)C1=O | 1.25
